Data on one compound can be found in patent US7875260B2, “Imaging agents for functional imaging of lymphatic structures” (Baylor College of Medicine, priority 2006, dated 2011).

The data set relates to swine lymph vessels. The experiment in a line: NIR fluorescence imaging of ICG lymph propulsion in swine. It is filed as in vivo.
[1] abbreviates: leg lymph vessel, four hours after injection on the leg.

Structures are written as SMILES.

In the case of `CC1(C)C(/C=C/C=C/C=C/C=C2\N(CCCCS(=O)(=O)O)c3ccc4ccccc4c3C2(C)C)=[N+](CCCCS(=O)(=O)[O-])c2ccc3ccccc3c21` [ICG, indocyanine green], where the note is “abdominal lymph vessels, 200 μl injection of 32 μM ICG”, the “frequency of ICG pulses passing a fixed location on the vessel” value is listed as 0.5-1.3 pulses/min. The “duration of lymph flow from injection site to middle iliac node” value (hindlimb, intradermal 200 μl of 32 μM ICG, duration of anesthesia) came to 4 h. For the same compound, under setting [1], the “rate of propelling ICG packets” value was 1.3 pulses/min and the “velocity of ICG packets” value is 0.62 ± 0.23 cm/s. Further, where the note is “second abdominal afferent lymph vessel, 7 minutes of imaging”, the “average interval between fluorescence intensity peaks in ROI” value is 46 s.
